Assay results as given in PubChem BioAssay AID2685 (National Center for Advancing Translational Sciences (NCATS), 2010).
Some of the results follow. The main result of the screen is listed elsewhere. These columns were measured beside it and carry no call. The list favours compounds with an active or inconclusive main result. The note in brackets gives the kind of curve behind each potency; many fits are weak.

Test: qHTS Assay for Lipid Storage Modulators in Drosophila S3 Cells;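 for cell number change: cells counted by Cell Tracker Red CMTPX staining in the red channel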
Details: BODIPY lipid droplet fluorescence, 18-24 h; for cell number change: measured here: cell count max response, cells fed with added oleic acid
In short: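 Drosophila S3 cells got compounds at several concentrations plus oleic acid (400 uM solution). Laser-scanning cytometry with 488 nm excitation read lipid droplets at 500-530 nm and cells at 575-640 nm. Percent activity was relative to 20 uM Triacsin C.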

[1] = measured here: lipid fluorescence (Fed channel) AC50, cells fed with added oleic acid
[2] = measured here: cell number channel AC50, cells fed with added oleic acid

Row | Compound | cell number change [%] | AC50 [1] | AC50 [2]
1 | Cc1cc(C(=O)CSc2nn3c(=O)c(C(C)(C)C)nnc3s2)c(C)n1C | 2.49 | 1.84 µM [falling, partial curve] | –
2 | CCOC(=O)c1nn(-c2ccccc2C)c2nc(-c3ccc(C)cc3)c(C#N)c(=O)n12 | 5.84 | – | –
3 | Cc1cccc2cc(CN(Cc3ccco3)C(=O)c3cccs3)c(=O)[nH]c12 | – | 0.146 µM [rising, full curve, poor fit] | 0.146 µM [rising, full curve, poor fit]
4 | NC(=O)c1ccc(NC(=O)Cn2c(=O)n(-c3ccccc3)c(=O)c3oc4ccccc4c32)cc1 | 33.6 | 29.1 µM [rising, single point] | 14.6 µM [rising, single point]
5 | COc1ccc(C(=O)c2cc([N+](=O)[O-])ccc2N2CCN(C)CC2)cc1 | -5.65 | 0.00461 µM [falling, full curve, poor fit] | –
6 | CCOC(=O)Cc1csc(NC(=O)c2c(O)c3ccccc3n(CC(C)C)c2=O)n1 | 32.1 | 1.16 µM [rising, partial curve] | 2.59 µM [rising, full curve, poor fit]
7 | COc1cccc(NC(=O)Nc2c(C)n(C)n(-c3ccccc3)c2=O)c1 | 31 | – | 16.4 µM [rising, partial curve, poor fit]
8 | O=C(N/N=C/C(Cl)=C/c1ccccc1)c1ccccc1F | 8.11 | 11.6 µM [falling, single point] | –
9 | Cc1cc(=O)oc2cc(OC(C)C(=O)NCC3CCC(C(=O)O)CC3)ccc12 (configuration not stated) | 4.53 | 0.164 µM [falling, full curve, poor fit] | –
10 | COc1ccccc1C(=O)NCC(c1cccnc1)N(C)C (configuration not stated) | -7.32 | 0.461 µM [rising, partial curve] | –
11 | O=c1oc2c3c4c(cc2s1)CCCN4CCC3 | 390 | 20.6 µM [rising, partial curve] | 20.6 µM [rising, partial curve]
12 | COc1cccc(NC(=O)Cn2c3ccccc3c3nc4n(c(=O)c32)CCS4)c1 | -165 | 29.1 µM [falling, single point] | 29.1 µM [falling, single point]
13 | Cc1ccc(Cl)cc1NC(=S)N(CCCN1CCN(C)CC1)Cc1cccs1 | – | 5.8 µM [falling, single point] | –
14 | CS(=O)(=O)NNC(=O)c1csc(Cc2c(Cl)sc3ccc(Cl)cc23)n1 | -5.71 | – | 0.13 µM [rising, full curve, poor fit]
15 | COc1cc(CC(=O)OCn2nnc3ccccc3c2=O)cc(OC)c1OC | 94.7 | – | 16.4 µM [rising, partial curve]
